Laboratory results reported in publication PMC7075923.
These are yes or no findings as the source states them, for the method shown. Some results given as binding are weak or reduced against the parent protein; the word gives no strength. Sequences can lack the tags named with a protein.

T1: MNSV p7A (DGBp1 of Melon necrotic spot virus), Gal4 fusion (Melon necrotic spot virus) (UniProt Q8V993)
T1 sequence: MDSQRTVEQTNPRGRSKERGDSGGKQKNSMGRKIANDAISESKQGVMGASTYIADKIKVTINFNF

B1: MNSV p7A (DGBp1 of Melon necrotic spot virus), Gal4 fusion (protein, UniProt Q8V993 1-65)
chain: T1 sequence
B2: RPP3B, Gal4 fusion (protein, UniProt Q9LVC9 1-120)
chain: MGVFSFVCKSKGGEWTAKQHEGDLEASASSTYDLQRKLVQTALSADSSGGVQSSFSLVSPTSAVFVVVIGGGGGGGFAAGGGAAAGGGGGGEAAAATKEEEKKKEESEEEEGDFGFDLFG

Key:
[1] = target: T1, MNSV p7A (DGBp1 of Melon necrotic spot virus), Gal4 fusion (Melon necrotic spot virus); assay: two-hybrid; GAL4 […] system, yeast AH109; DGBp1 or p7A mutants as Gal4-BD fusions (pGBKT7) against pAC-p7A or pAC-p7 (pACT2); growth on SD + DO-A-H-L-W + X-alpha Gal (HIS3, ADE2, MEL1 reporters)
[2] = target: p7A^Ct (MNSV p7A lacking residues 45 to 65), Gal4-BD fusion (Melon necrotic spot virus) (UniProt Q8V993); assay: as above
[3] = target: p7A^Nt (MNSV p7A lacking residues 1 to 22), Gal4-BD fusion (Melon necrotic spot virus) (UniProt Q8V993); assay: as above
[4] = target: T1, MNSV p7A (DGBp1 of Melon necrotic spot virus), Gal4 fusion (Melon necrotic spot virus); assay: two-hybrid; GAL4 […] system, yeast AH109; DGBp1s and their fnf mutants as Gal4-BD fusions against full-length Arabidopsis ORFs as Gal4-AD fusions; controls pBD-p53 and pAC-ILR3; growth on SD + DO-A-H-L-W + X-alpha Gal

Binder	binding [1]	binding [2]	binding [3]	binding [4]
B1	binds	no binding	binds	–
B2	–	–	–	no binding
